According to patent US20220074941A1, “HSP90 COMBINATION THERAPY” (Sloan-Kettering Institute for Cancer Research, priority 2011, published 2022):

How the values were obtained:
[1] = tested on: Hsp90 complexes in K562 cell extract; assay: Nano-LC-MS/MS of PU-beads pull-downs; type: binding; details: protein identified in PU-beads pull-down of K562 extract, QSTAR-Elite QTof MS
Protocol: Protein cargo isolated from cell lysate with PU-beads or control-beads was subjected to proteomic analysis by nano liquid chromatography coupled to tandem mass spectrometry (nano LC-MS/MS). Initial protein identification was performed using the Mascot search engine, and was further evaluated using Scaffold Proteome Software (Tables 5a-d).
(§1) Lysates prepared as mentioned above were first pre-cleaned by incubation with control beads overnight at 4° C. […] Beads were washed with lysis buffer, proteins eluted by boiling in 2% SDS, separated on a denaturing gel and Coomassie stained according to manufacturer's procedure (Biorad). […] Analyses of the batch purified pools were done using a QSTAR-Elite hybrid quadrupole time-of-flight mass spectrometer (QTof MS) (AB/MDS Sciex), equipped with a nano spray ion source. Peptide mixtures (in 20 μL) are loaded onto a trapping guard column (0.3×5-mm PepMap C18 100 cartridge from LC Packings) using an Eksigent nano MDLC system (Eksigent Technologies, Inc) at a flow rate of 20 μL/min. […] Electrospray ionization (ESI) needle voltage was set at about 1800 V. The mass analyzer is operated in automatic, data-dependent MS/MS acquisition mode, with the threshold set to 10 counts per second of doubly or triply charged precursor ions selected for fragmentation scans. Survey scans of 0.25 sec are recorded from 400 to 1800 amu; up to 3 MS/MS scans are then collected sequentially for the selected precursor ions, recording from 100 to 1800 amu. The collision energy is automatically adjusted in accordance with the m/z value of the precursor ions selected for MS/MS. Selected precursor ions are excluded from repeated selection for 60 sec after the end of the corresponding fragmentation duty cycle. […] One missed tryptic cleavage site was allowed, precursor ion mass tolerance=0.4 Da fragment ion mass tolerance=0.4 Da, protein modifications were allowed for Met-oxide, Cys-acrylamide and N-terminal acetylation. MudPit scoring was typically applied with ‘require bold red’ activated, and using significance threshold score p<0.05. Unique peptide counts (or ‘spectral counts’) and percent sequence coverages for all identified proteins were exported to Scaffold Proteome Software (version 2_06_01, www.proteomesoftware.com) for further bioinformatic analysis (Table 5a). Using output from Mascot, Scaffold validates, organizes, and interprets mass spectrometry data, allowing more easily to manage large amounts of data, to compare samples, and to search for protein modifications.

[2] = tested on: Hsp90 complexes in Mia-PaCa-2 cell extract; assay: Nano-LC-MS/MS of PU-beads pull-downs; type: binding, human; details: protein identified in PU-beads pull-down of Mia-Paca 2 extract; QSTAR-Elite QTof MS
Protocol: as §1

B1: PTK2; FAK1 (protein, UniProt Q05397 2-1052, looked up)
Focal adhesion kinase 1: AAAYLDPNLNHTPNSSTKTHLGTGMERSPGAMERVLKVFHYFESNSEPTTWASIIRHGDATDVRGIIQKIVDSHKVKHVACYGFRLSHLRSEEVHWLHVDMGVSSVREKYELAHPPEEWKYELRIRYLPKGFLNQFTEDKPTLNFFYQQVKSDYMLEIADQVDQEIALKLGCLEIRRSYWEMRGNALEKKSNYEVLEKDVGLKRFFPKSLLDSVKAKTLRKLIQQTFRQFANLNREESILKFFEILSPVYRFDKECFKCALGSSWIISVELAIGPEEGISYLTDKGCNPTHLADFTQVQTIQYSNSEDKDRKGMLQLKIAGAPEPLTVTAPSLTIAENMADLIDGYCRLVNGTSQSFIIRPQKEGERALPSIPKLANSEKQGMRTHAVSVSETDDYAEIIDEEDTYTMPSTRDYEIQRERIELGRCIGEGQFGDVHQGIYMSPENPALAVAIKTCKNCTSDSVREKFLQEALTMRQFDHPHIVKLIGVITENPVWIIMELCTLGELRSFLQVRKYSLDLASLILYAYQLSTALAYLESKRFVHRDIAARNVLVSSNDCVKLGDFGLSRYMEDSTYYKASKGKLPIKWMAPESINFRRFTSASDVWMFGVCMWEILMHGVKPFQGVKNNDVIGRIENGERLPMPPNCPPTLYSLMTKCWAYDPSRRPRFTELKAQLSTILEEEKAQQEERMRMESRRQATVSWDSGGSDEAPPKPSRPGYPSPRSSEGFYPSPQHMVQTNHYQVSGYPGSHGITAMAGSIYPGQASLLDQTDSWNHRPQEIAMWQPNVEDSTVLDLRGIGQVLPTHLMEERLIRQQQEMEEDQRWLEKEERFLKPDVRLSRGSIDREDGSLQGPIGNQHIYQPVGKPDPAAPPKKPPRPGAPGHLGSLASLSSPADSYNEGVKLQPQEISPPPTANLDRSNDKVYENVTGLVKAVIEMSSKIQPAPPEEYVPMVKEVGLALRTLLATVDETIPLLPASTHREIEMAQKLLNSDLGELINKMKLAQQYVMTSLQQEYKKQMLTAAHALAVDAKNLLDVIDQARLKMLGQTRPH
For B1, the “Number of Assigned Spectra, K562 Prep 1” value [1] was 4, the “Number of Assigned Spectra, K562 Prep 2” value [1] was 5 and the “Number of Assigned Spectra, Mia-Paca 2” value [2] was 4.

B2: TAB1 (protein)
chain: MAAQRRSLLQSEQQPSWTDDLPLCHLSGVGSASNRSYSADGKGTESHPPEDSWLKFRSENNCFLYGVFNGYDGNRVTNFVAQRLSAELLLGQLNAEHAEADVRRVLLQAFDVVERSFLESIDDALAEKASLQSQLPEGVPQHQLPPQYQKILERLKTLEREISGGAMAVVAVLLNNKLYVANVGTNRALLCKSTVDGLQVTQLNVDHTTENEDELFRLSQLGLDAGKIKQVGIICGQESTRRIGDYKVKYGYTDIDLLSAAKSKPIIAEPEIHGAQPLDGVTGFLVLMSEGLYKALEAAHGPGQANQEIAAMIDTEFAKQTSLDAVAQAVVDRVKRIHSDTFASGGERARFCPRHEDMTLLVRNFGYPLGEMSQPTPSPAPAAGGRVYPVSVPYSSAQSTSKTSVTLSLVMPSQGQMVNGAHSASTLDEATPTLTNQSPTLTLQSTNTHTQSSSSSSDGGLFRSRPAHSLPPGEDGRVEPYVDFAEFYRLWSVDHGEQSVVTAP
In the case of B2, the “Number of Assigned Spectra, K562 Prep 1” value [1] is reported as 1, the “Number of Assigned Spectra, K562 Prep 2” value [1] is reported as 3 and the “Number of Assigned Spectra, Mia-Paca 2” value [2] is reported as 2.

B3: MAP2K3; MEK3 (protein, UniProt P46734 1-347, looked up)
Dual specificity …: MESPASSQPASMPQSKGKSKRKKDLRISCMSKPPAPNPTPPRNLDSRTFITIGDRNFEVEADDLVTISELGRGAYGVVEKVRHAQSGTIMAVKRIRATVNSQEQKRLLMDLDINMRTVDCFYTVTFYGALFREGDVWICMELMDTSLDKFYRKVLDKNMTIPEDILGEIAVSIVRALEHLHSKLSVIHRDVKPSNVLINKEGHVKMCDFGISGYLVDSVAKTMDAGCKPYMAPERINPELNQKGYNVKSDVWSLGITMIEMAILRFPYESWGTPFQQLKQVVEEPSPQLPADRFSPEFVDFTAQCLRKNPAERMSYLELMEHPFFTLHKTKKTDIAAFVKEILGEDS
In the case of B3, the “Number of Assigned Spectra, K562 Prep 1” value [1] is reported as 0, the “Number of Assigned Spectra, K562 Prep 2” value [1] is reported as 0 and the “Number of Assigned Spectra, Mia-Paca 2” value [2] is reported as 2.

B4: CAPN1 (protein)
chain: SEEIITPVYCTGVSAQVQKQRARELGLGRHENAIKYLGQDYEQLRVRCLQSGTLFRDEAFPPVPQSLGYKDLGPNSSKTYGIKWKRPTELLSNPQFIVDGATRTDICQGALGDCWLLAAIASLTLNDTLLHRVVPHGQSFQNGYAGIFHFQLWQFGEWVDVVVDDLLPIKDGKLVFVHSAEGNEFWSALLEKAYAKVNGSYEALSGGSTSEGFEDFTGGVTEWYELRKAPSDLYQIILKALERGSLLGCSIDISSVLDMEAITFKKLVKGHAYSVTGAKQVNYRGQVVSLIRMRNPWGEVEWTGAWSDSSSEWNNVDPYERDQLRVKMEDGEFWMSFRDFMREFTRLEICNLTPDALKSRTIRKWNTTLYEGTWRRGSTAGGCRNYPATFWVNPQFKIRLDETDDPDDYGDRESGCSFVLALMQKHRRRERRFGRDMETIGFAVYEVPPELVGQPAVHLKRDFFLANASRARSEQFINLREVSTRFRLPPGEYVVVPSTFEPNKEGDFVLRFFSEKSAGTVELDDQIQANLPDEQVLSEEEIDENFKALFRQLAGEDMEISVKELRTILNRIISKHKDLRTKGFSLESCRSMVNLMDRDGNGKLGLVEFNILWNRIRNYLSIFRKFDLDKSGSMSAYEMRMAIESAGFKLNKKLYELIITRYSEPDLAVDFDNFVCCLVRLETMFRFFKTLDTDLDGVVTFDLFKWLQLTMFA
B4 was tested, and the “Number of Assigned Spectra, K562 Prep 1” value [1] was 10, the “Number of Assigned Spectra, K562 Prep 2” value [1] was 11 and the “Number of Assigned Spectra, Mia-Paca 2” value [2] was 0.

B5: CAPNS1 (protein, UniProt P04632 1-268, looked up)
Calpain small subunit 1: MFLVNSFLKGGGGGGGGGGGLGGGLGNVLGGLISGAGGGGGGGGGGGGGGGGGGGGTAMRILGGVISAISEAAAQYNPEPPPPRTHYSNIEANESEEVRQFRRLFAQLAGDDMEVSATELMNILNKVVTRHPDLKTDGFGIDTCRSMVAVMDSDTTGKLGFEEFKYLWNNIKRWQAIYKQFDTDRSGTICSSELPGAFEAAGFHLNEHLYNMIIRRYSDESGNMDFDNFISCLVRLDAMFRAFKSLDKDGTGQIQVNIQEWLQLTMYS
In the case of B5, the “Number of Assigned Spectra, K562 Prep 1” value [1] is reported as 0, the “Number of Assigned Spectra, K562 Prep 2” value [1] is reported as 0 and the “Number of Assigned Spectra, Mia-Paca 2” value [2] is reported as 3.

B6: MYCBP (protein, UniProt Q99417 2-103, looked up)
c-Myc-binding protein: AHYKAADSKREQFRRYLEKSGVLDTLTKVLVALYEEPEKPNSALDFLKHHLGAATPENPEIELLRLELAEMKEKYEAIVEENKKLKAKLAQYEPPQEEKRAE
In the case of B6, the “Number of Assigned Spectra, K562 Prep 1” value [1] is reported as 2, the “Number of Assigned Spectra, K562 Prep 2” value [1] is reported as 0 and the “Number of Assigned Spectra, Mia-Paca 2” value [2] is reported as 3.

B7: AKAP8L (protein, UniProt Q9ULX6 1-646, looked up)
A-kinase anchor protein 8-like: MSYTGFVQGSETTLQSTYSDTSAQPTCDYGYGTWNSGTNRGYEGYGYGYGYGQDNTTNYGYGMATSHSWEMPSSDTNANTSASGSASADSVLSRINQRLDMVPHLETDMMQGGVYGSGGERYDSYESCDSRAVLSERDLYRSGYDYSELDPEMEMAYEGQYDAYRDQFRMRGNDTFGPRAQGWARDARSGRPMASGYGRMWEDPMGARGQCMSGASRLPSLFSQNIIPEYGMFQGMRGGGAFPGGSRFGFGFGNGMKQMRRTWKTWTTADFRTKKKKRKQGGSPDEPDSKATRTDCSDNSDSDNDEGTEGEATEGLEGTEAVEKGSRVDGEDEEGKEDGREEGKEDPEKGALTTQDENGQTKRKLQAGKKSQDKQKKRQRDRMVERIQFVCSLCKYRTFYEDEMASHLDSKFHKEHFKYVGTKLPKQTADFLQEYVTNKTKKTEELRKTVEDLDGLIQQIYRDQDLTQEIAMEHFVKKVEAAHCAACDLFIPMQFGIIQKHLKTMDHNRNRRLMMEQSKKSSLMVARSILNNKLISKKLERYLKGENPFTDSPEEEKEQEEAEGGALDEGAQGEAAGISEGAEGVPAQPPVPPEPAPGAVSPPPPPPPEEEEEGAVPLLGGALQRQIRGIPGLDVEDDEEGGGGAP
In the case of B7, the “Number of Assigned Spectra, K562 Prep 1” value [1] is reported as 3, the “Number of Assigned Spectra, K562 Prep 2” value [1] is reported as 3 and the “Number of Assigned Spectra, Mia-Paca 2” value [2] is reported as 2.

B8: CARM1 (protein, UniProt Q86X55 2-608, looked up)
Histone-arginine …: AAAAAAVGPGAGGAGSAVPGGAGPCATVSVFPGARLLTIGDANGEIQRHAEQQALRLEVRAGPDSAGIALYSHEDVCVFKCSVSRETECSRVGKQSFIITLGCNSVLIQFATPNDFCSFYNILKTCRGHTLERSVFSERTEESSAVQYFQFYGYLSQQQNMMQDYVRTGTYQRAILQNHTDFKDKIVLDVGCGSGILSFFAAQAGARKIYAVEASTMAQHAEVLVKSNNLTDRIVVIPGKVEEVSLPEQVDIIISEPMGYMLFNERMLESYLHAKKYLKPSGNMFPTIGDVHLAPFTDEQLYMEQFTKANFWYQPSFHGVDLSALRGAAVDEYFRQPVVDTFDIRILMAKSVKYTVNFLEAKEGDLHRIEIPFKFHMLHSGLVHGLAFWFDVAFIGSIMTVWLSTAPTEPLTHWYQVRCLFQSPLFAKAGDTLSGTCLLIANKRQSYDISIVAQVDQTGSKSSNLLDLKNPFFRYTGTTPSPPPGSHYTSPSENMWNTGSTYNLSSGMAVAGMPTAYDLSSVIASGSSVGHNNLIPLANTGIVNHTHSRMGSIMSTGIVQGSSGAQGSGGGSTSAHYAVNSQFTMGGPAISMASPMSIPTNTMHYGS
With B8 the “Number of Assigned Spectra, K562 Prep 1” value [1] was 12, the “Number of Assigned Spectra, K562 Prep 2” value [1] was 16 and the “Number of Assigned Spectra, Mia-Paca 2” value [2] was 9.
